Measurements published in patent US20240076387A1.

Biological target: deglycosylated human sFlt-1 (human)
Assay: size exclusion chromatography of the mixture

binding: binds
B1: 21B3 (antibody, V domains shown)
VH: ELQLVESGGGLVQPGGSLRLSCAASGFTFRDYSMSWVRQAPGKGLEWVSAISWNGDSTYYAESMKGRFTISRDNAKNTLYLQMNSLKSEDTAVYYCAKSWATPIESLYYYGMDYWGKGTLVTVSS
VL: SYELTQSPSVSVALRQTAKITCGGNNIGSQTAQWYQQKPGQAPVLVIYANNRRPSGIPERFSGSKSGNTATLTISGAQAEDEADYYCQVWDGSTQAIVFGGGTHLTVL

These are yes or no findings as the source states them, for the method shown. Binding calls can cover weak binding; strength is not graded here.
